From the supplement of paper PMC12889115
Some of the results follow. These are raw signals, not scaled to a control.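 In the initial screen, polymyxin B was used at a concentration that permeabilizes Salmonella's outer membrane but not its inner membrane. Maximum growth was set by DMSO wells with or without polymyxin B. Since plates varied, data were ranked per plate, and compounds giving the lowest OD600 advanced as hits.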

Tested on: Salmonella enterica serovar Typhimurium SL1344
Experiment: bacterial growth OD600 after 18 h with compound and polymyxin B; higher = more bacterial growth (less inhibition)
Details: 50 µM, Mueller-Hinton broth

CCC1CN(C(=O)c2sccc2C)Cc2ccc(Cl)cc2O1 (stereo not given)
bacterial growth OD600 (polymyxin B 0.75 µg/mL): 0.014

CC(C)CN1CCC(N2CCCC(C(=O)NCc3cccnc3)C2)CC1 (stereo not given)
bacterial growth OD600 (polymyxin B 1 µg/mL): 1.36

COc1ccccc1OCC(=O)N1CCc2c(cnc(C)c2CNC(=O)c2ccccc2SC)C1
bacterial growth OD600 (polymyxin B 0.75 µg/mL): 0.785

CCCCNC(=O)N1CCCC(Cc2ccc(F)cc2F)(C(=O)OCC)C1 (stereo not given)
bacterial growth OD600 (polymyxin B 1 µg/mL): 0.652

CCN(Cc1nccn1C)C(=O)c1ccc(N2CCC[C@H]2CO)nc1
bacterial growth OD600 (polymyxin B 0.75 µg/mL): 0.845

Cc1nc2ccccc2n1Cc1cc(C(=O)N2CCCCCCC2)n[nH]1
bacterial growth OD600 (polymyxin B 1 µg/mL): 0.992

COc1cccc(CNC(=O)CCC2CCCN(Cc3nc4ccccc4n3C)C2)c1 (stereo not given)
bacterial growth OD600 (polymyxin B 0.75 µg/mL): 0.857

O=C(c1n[nH]c(=O)c2ccccc12)N1CCC2(CCCN(CC3CCCCC3)C2)C1 (stereo not given)
bacterial growth OD600 (polymyxin B 1 µg/mL): 0.915

Cc1cccc(CN2CCC(n3nccc3NC(=O)C(C)(C)C)CC2)c1
bacterial growth OD600 (polymyxin B 1 µg/mL): 0.928

O=C(NCc1cn2c(n1)SCC2)c1cc(COc2ccccc2)[nH]n1
bacterial growth OD600 (polymyxin B 1 µg/mL): 0.836

OCCC1CN(Cc2ccc(-n3cccn3)cc2)CCN1Cc1ccccc1F (stereo not given)
bacterial growth OD600 (polymyxin B 1 µg/mL): 0.799

CCOc1ccc2nc(N3CCCN(Cc4ccc5nsnc5c4)CC3)nc(C)c2c1
bacterial growth OD600 (polymyxin B 0.75 µg/mL): 0.732

CC(=O)c1ccc(C(=O)N2CCCC(CCC(=O)NCc3ccccc3Cl)C2)cc1 (stereo not given)
bacterial growth OD600 (polymyxin B 1 µg/mL): 0.866

COc1ccc(CC2(CCC(=O)NCc3ccccc3F)CCC(=O)N2)c(F)c1 (stereo not given)
bacterial growth OD600 (polymyxin B 0.75 µg/mL): 0.757

CN(Cc1cccnc1)C(=O)CC(c1cccc(O)c1)c1cccc(Cl)c1 (stereo not given)
bacterial growth OD600 (polymyxin B 1 µg/mL): 0.639

COCCN1CCC(CNc2nc3nonc3nc2NC2CCCC2)CC1
bacterial growth OD600 (polymyxin B 1 µg/mL): 0.986

CCN1CCN(C(=O)c2ccc(N3CCC(N(C)CCOc4ccc(C)cc4)CC3)cc2)CC1
bacterial growth OD600 (polymyxin B 0.75 µg/mL): 0.767

Cc1ccc(CN(C)Cc2cnc(S(=O)(=O)Cc3ccccc3)n2CC(C)C)cc1
bacterial growth OD600 (polymyxin B 1 µg/mL): 0.038

COc1cccc(N2CCN(C(=O)CCC3(Cc4ccc(F)c(OC)c4)CCC(=O)N3)CC2=O)c1 (stereo not given)
bacterial growth OD600 (polymyxin B 0.75 µg/mL): 0.848

COc1cccc(CN(C)C(=O)CC2C(=O)NCCN2Cc2ccc(F)cc2Cl)c1 (stereo not given)
bacterial growth OD600 (polymyxin B 1 µg/mL): 0.937

O=C(c1cccc(N2CCCC2=O)c1)N1CCOc2ccc(CN3CCc4ccccc4C3)cc2C1
bacterial growth OD600 (polymyxin B 0.75 µg/mL): 0.804

COc1cccc(CN2CCN(Cc3c[nH]nc3-c3cccc(F)c3)CC2CCO)c1 (stereo not given)
bacterial growth OD600 (polymyxin B 1 µg/mL): 1.07

COCCC1CCCCN1C(=O)CC1(c2ccccc2)CC(=O)N(Cc2ccc3c(c2)OCO3)C1=O (stereo not given)
bacterial growth OD600 (polymyxin B 0.75 µg/mL): 0.003

CN(C(=O)c1n[nH]c2c1CCC2)C1CCCN(Cc2ccccc2F)C1 (stereo not given)
bacterial growth OD600 (polymyxin B 1 µg/mL): 1.04

CCOc1ccc2nc(N3CCCC(NCc4c(C)nn(CC)c4C)CC3)nc(C)c2c1 (stereo not given)
bacterial growth OD600 (polymyxin B 0.75 µg/mL): 0.787

COCCc1noc(-c2ccc(N(C)C(C)c3nccs3)nc2)n1 (stereo not given)
bacterial growth OD600 (polymyxin B 1 µg/mL): 0.794

O=C(Cn1cccn1)NC1CC(=O)N(Cc2cccc3ccccc23)C1 (stereo not given)
bacterial growth OD600 (polymyxin B 1 µg/mL): 0.949

Cc1cccc(C)c1OCc1cc(C(=O)NC(C2CC2)C2CC2)no1
bacterial growth OD600 (polymyxin B 1 µg/mL): 0.791

CO[C@H]1[C@H](NC(=O)c2ccncc2)c2ccccc2C12CCN(C(=O)Cc1n[nH]c3ccccc13)CC2
bacterial growth OD600 (polymyxin B 0.75 µg/mL): 0.84

Cc1c[nH]c(CN(C)C(=O)C2(N3C[C@@H](C)O[C@@H](C)C3)Cc3ccccc3C2)n1
bacterial growth OD600 (polymyxin B 0.75 µg/mL): -0.005
